Test results published in paper PMC4974481.
Results are given in words; binding and its absence hold for the method and conditions named. In cells and extracts the contact can be indirect. Some binding calls cover weakened binding; strength is not graded here.

Sequences of proteins named here, by UniProt entry; tags and fusion partners are left off.
UniProt P14859: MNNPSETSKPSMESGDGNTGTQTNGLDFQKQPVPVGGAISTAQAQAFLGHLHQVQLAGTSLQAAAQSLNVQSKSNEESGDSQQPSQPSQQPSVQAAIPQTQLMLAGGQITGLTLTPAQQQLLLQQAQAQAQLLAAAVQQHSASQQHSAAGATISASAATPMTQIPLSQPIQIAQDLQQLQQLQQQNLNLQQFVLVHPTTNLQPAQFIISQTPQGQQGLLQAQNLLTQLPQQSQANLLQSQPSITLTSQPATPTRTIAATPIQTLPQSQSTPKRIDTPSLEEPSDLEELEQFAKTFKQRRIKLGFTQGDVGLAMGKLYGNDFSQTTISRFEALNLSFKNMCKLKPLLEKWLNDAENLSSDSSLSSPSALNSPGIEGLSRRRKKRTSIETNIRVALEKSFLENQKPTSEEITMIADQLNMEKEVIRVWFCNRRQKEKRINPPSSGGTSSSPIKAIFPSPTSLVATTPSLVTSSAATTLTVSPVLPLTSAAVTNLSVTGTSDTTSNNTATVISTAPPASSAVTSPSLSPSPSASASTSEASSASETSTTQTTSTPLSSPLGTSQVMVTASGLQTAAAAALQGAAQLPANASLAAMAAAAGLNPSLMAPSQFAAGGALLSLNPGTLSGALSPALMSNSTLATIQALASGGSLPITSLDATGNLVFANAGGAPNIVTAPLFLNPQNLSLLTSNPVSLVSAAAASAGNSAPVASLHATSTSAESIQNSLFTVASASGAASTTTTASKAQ
UniProt P19474: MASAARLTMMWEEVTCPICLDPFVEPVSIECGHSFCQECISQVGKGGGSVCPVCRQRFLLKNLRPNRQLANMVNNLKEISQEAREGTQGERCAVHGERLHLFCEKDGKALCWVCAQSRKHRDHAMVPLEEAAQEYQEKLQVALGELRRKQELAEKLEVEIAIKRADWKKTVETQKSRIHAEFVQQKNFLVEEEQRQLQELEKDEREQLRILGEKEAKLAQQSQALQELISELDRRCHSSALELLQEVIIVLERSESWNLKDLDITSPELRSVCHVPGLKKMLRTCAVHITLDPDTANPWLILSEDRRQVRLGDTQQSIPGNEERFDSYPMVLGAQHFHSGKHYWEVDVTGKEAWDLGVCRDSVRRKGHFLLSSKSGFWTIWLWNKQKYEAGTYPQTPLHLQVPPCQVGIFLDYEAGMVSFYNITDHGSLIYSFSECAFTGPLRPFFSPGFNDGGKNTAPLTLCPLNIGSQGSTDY

Target: endogenous Oct-1 (octamer-binding transcription factor 1, encoded by POU2F1) (human (endogenous in HT29)) (UniProt P14859)
Test: co-IP; HT29 lysate in RIPA buffer; 1 μg anti-Oct-1 antibody and Protein G dynabeads with 500 μg extracted protein, overnight at 4 °C, three washes; western blot with Clean-Blot IP detection kit

- binding: binds
Substance: tripartite motif-containing protein 21 (TRIM21) (from UniProt P19474 1-475)
